Article PMC8360007, “Stereoselective Access to Antimelanoma Agents by Hybridization and Dimerization of Dihydroartemisinin and Artesunic acid” (Chemmedchem, 2021)

Test: EPR spin trapping with MNP in the presence of Fe(II)SO4
Details: Fe(II)SO4 and MNP, spectra recorded till 180 minutes
Protocol: EPR experiments in the presence of Fe(II)SO4 and the spin trap MNP [0, 15, 70, 120, 150 and 180 min with respect to the addition of the last reagent Fe(II)SO4] were also performed. Spectra were recorded till 180 minutes after the addition of Fe(II)SO4 to 20–22‐α,α samples and compared with reference obtained by adding only MNP (Figures S#6–8). In Figure 3 a comparison of the EPR spectra of the MNP adduct from 20–22‐α,α at t=150 minutes is reported in order to compare the intensity of the radical formation for the three products at the same time. In all cases the giso=2.0063±0.0001 and the coupling constant of nitrogen was A=1.62±0.01 mT. These magnetic parameters are in agreement to a C‐centered radical as previously published.[12]
Figure 3 X‐band EPR spectra of the reaction of a) 20‐α,α, b) 22‐α,α, c) 21‐α,α in the presence of MNP at t=150 minutes after the addition of the last reagent Fe(II)SO4 . Experimental condition. 9.866 GHz microwave frequency, 0.1 mT modulation amplitude and 0.2 mW microwave power.

Row | SMILES | radical signal of MNP adduct (C‐centered radical, EPR)
1 | CC1CCC2C(C)C(OC(=O)CCC(=O)NCCc3ccc(OC(=O)CCC(=O)OC4OC5OC6(C)CCC7C(C)CCC(C4C)C57OO6)cc3)OC3OC4(C)CCC1C32OO4 (stereo not drawn) [20‐α,α] | observed after 1 hour
2 | COC(=O)C(Cc1ccc(OC(=O)CCC(=O)OC2OC3OC4(C)CCC5C(C)CCC(C2C)C35OO4)cc1)NC(=O)CCC(=O)OC1OC2OC3(C)CCC4C(C)CCC(C1C)C24OO3 (stereo not drawn) [21‐α,α] | almost undetectable even after 180 minutes
3 | CC1CCC2C(C)C(OC(=O)CCC(=O)OCc3ccc(OC(=O)CCC(=O)OC4OC5OC6(C)CCC7C(C)CCC(C4C)C57OO6)cc3)OC3OC4(C)CCC1C32OO4 (stereo not drawn) [Compound 22‐α,α] | visible at 120 minutes
